Results: publication PMC7819943, “Rice protein-binding microarrays: a tool to detect cis-acting elements near promoter regions in rice”
Some of the results follow.

Chains of the proteins cited; added tags and fusions are not shown.
UniProt Q0JBA9, entry or part of it: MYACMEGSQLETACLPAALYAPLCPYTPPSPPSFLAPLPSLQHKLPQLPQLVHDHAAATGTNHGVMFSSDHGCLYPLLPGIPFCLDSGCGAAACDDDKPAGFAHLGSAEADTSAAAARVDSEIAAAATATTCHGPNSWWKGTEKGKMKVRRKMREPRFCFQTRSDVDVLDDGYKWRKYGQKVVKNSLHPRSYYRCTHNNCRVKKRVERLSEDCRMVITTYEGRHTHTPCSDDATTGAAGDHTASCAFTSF

biological target: OsWRKY34 (Oryza sativa, UniProt Q0JBA9 1-250); test: protein-binding microarray (RPBM); PBS, 2% BSA, 51.3 ng/ul salmon testes DNA, 50 uM zinc acetate, 200 nM TF, 25 C, 1 h; high values mean tight binding; settings: protein: recombinant; tags: N-terminal polyhistidine and DsRed monomer fusion (pET32a); label: CyDye5-dUTP incorporated in the synthesized complementary strand; 3' TTTTT single-stranded linker to array surface; dsDNA, one strand shown
How it was run: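 A custom Agilent array was converted to double-stranded form by primer extension with Cy5-dUTP and blocked with 2% BSA. Protein at 200 nM in PBS with 2% BSA, salmon testes DNA and 50 µM zinc acetate was applied for 1 h at 25 °C, followed by washing. The proteins were polyhistidine–DsRed N-terminal fusions of transcription factors, expressed in E. coli BL21-CodonPlus and Ni–NTA-purified. The binding signal is per-feature fluorescence intensity (arbitrary units) from an Axon 4000B scanner.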

Sequence	binding signal
GCACCGGACGTCCCACGTCGCTCCACGTCACCGATCCGCGCGGAGTCACCTAGTGCAG	8080 fluorescence intensity (a.u.)
CCACCGCCCGCTCGACGCGCTCTCCCGCTTCCGCTCCATGCGGAGTCACCTAGTGCAG	8970 fluorescence intensity (a.u.)
TTGATTTTTTTTCTTGTTTTCTGAAGATTTTATTTACAAACGGAGTCACCTAGTGCAG	8960 fluorescence intensity (a.u.)
ATTTTTTTGGGCGCGGGTTGGAGCCGGTTTGACTAAAAGGCGGAGTCACCTAGTGCAG	8310 fluorescence intensity (a.u.)
ATACGTCTCTTTTCGAAACAATGAGCTTCACTTCTTTAAGCGGAGTCACCTAGTGCAG	8470 fluorescence intensity (a.u.)
CCGGAGGTGTTTCGTTTTGTTTTGAATTTTTTTTCCCTTTCGGAGTCACCTAGTGCAG	9230 fluorescence intensity (a.u.)
TTCCATACCTCAGTCGCATGATACTACTACTAGTACTATTCGGAGTCACCTAGTGCAG	9300 fluorescence intensity (a.u.)
CGCCGTGCCCAACATCCTCTATCCACACACCGCTTGATTTCGGAGTCACCTAGTGCAG	9130 fluorescence intensity (a.u.)
TGTGCCACTTTATGTCTGCCCTTCGTCTGTCATCTCTACTCGGAGTCACCTAGTGCAG	8670 fluorescence intensity (a.u.)
GGTTGATCCGATTTTTTCTGTTTCTCTGCTTGTAGCAATGCGGAGTCACCTAGTGCAG	8200 fluorescence intensity (a.u.)
ACCGATCCCCATCGCCGCCGTCGCTCCACCGGCTCGCCCTCGGAGTCACCTAGTGCAG	8120 fluorescence intensity (a.u.)
TTCGGGTTTTTTTTTTGTTTATTTTGTCTTTCGCTTTTCACGGAGTCACCTAGTGCAG	14900 fluorescence intensity (a.u.)
GAGTCGTGTTTGGTTGGTATGAAGATGTGTGATAAGGGCACGGAGTCACCTAGTGCAG	9610 fluorescence intensity (a.u.)
AACGAATTTGAACATGCCCCATCCTTACCTAAGTCTAGTTCGGAGTCACCTAGTGCAG	15500 fluorescence intensity (a.u.)
AAACTTAAACATTTCGCTTCATTTCTTTTTGCCCCATTATCGGAGTCACCTAGTGCAG	8640 fluorescence intensity (a.u.)
CCGTTGTTGGGCATCTACATCTTAATCGCCGGTCGTCTCGCGGAGTCACCTAGTGCAG	8320 fluorescence intensity (a.u.)
GCCTCGAGCTCCGTCAGACATGTTCAGTTTCATTATATTACGGAGTCACCTAGTGCAG	8120 fluorescence intensity (a.u.)
CGGTTGGTTGGCTGGTTGGTCGGCGAATTGCACATCTTGGCGGAGTCACCTAGTGCAG	8210 fluorescence intensity (a.u.)
GTCATATATCTGGTTTTGTGGTTGGAGGACGATTTTGTAACGGAGTCACCTAGTGCAG	9470 fluorescence intensity (a.u.)
ACTGCGCTGACGCCCGCGGCCGCCGCGGCGTCGCCTGCCGCGGAGTCACCTAGTGCAG	8080 fluorescence intensity (a.u.)
TTGTGTCATGTAGGTCCTTAAACTCTCAAAATGCATATCTCGGAGTCACCTAGTGCAG	8760 fluorescence intensity (a.u.)

Sequence	binding signal
AATTTTGAGATTTCTTTTCATCGTAGTTTTTTCCCATACTCGGAGTCACCTAGTGCAG	9260 fluorescence intensity (a.u.)
GGAACGTCTGAACACACAAGCTATCGTCATCTGAACGCACCGGAGTCACCTAGTGCAG	8240 fluorescence intensity (a.u.)
TTTTTTCCGGCATCCAACGTCGCACATCCATCCACGTCATCGGAGTCACCTAGTGCAG	11000 fluorescence intensity (a.u.)
GTCTCAGAATATATGATACGATCGTCCTGTCACTTGCCCACGGAGTCACCTAGTGCAG	9060 fluorescence intensity (a.u.)
CTCCGGACTCGCCGCGATCCACTTATTCCTCGCTCCCAATCGGAGTCACCTAGTGCAG	8650 fluorescence intensity (a.u.)
GTTGTGCACAATCATCTCTAGTTGTTTTGTGTATCCCTATCGGAGTCACCTAGTGCAG	8830 fluorescence intensity (a.u.)
TCGTTGACTTTTTAACCAACGTTTAACCATTCGTCTTATTCGGAGTCACCTAGTGCAG	18600 fluorescence intensity (a.u.)
ACTGACTCTGACACACATCCTATCAAGCCTATACACATATCGGAGTCACCTAGTGCAG	10600 fluorescence intensity (a.u.)
AGGGGTTAGCTATTATCGGACAACTTGGCATATTGAAATTCGGAGTCACCTAGTGCAG	11000 fluorescence intensity (a.u.)
GTGGGCCACTACCTTCGCGTTCTTCATCGCCCACGTGGTCCGGAGTCACCTAGTGCAG	8910 fluorescence intensity (a.u.)
TGAGCACATGGCAGGGGAGGGACCGATGGGTGGGAGGACGCGGAGTCACCTAGTGCAG	10500 fluorescence intensity (a.u.)
GTAAAGAGCTCTCTTATCCTGAACTTGAACTGTTTTTCTCCGGAGTCACCTAGTGCAG	9790 fluorescence intensity (a.u.)
CGCGCTGGAGATGTTTGGAGTGTTCTTTGCAGTTGCTGTTCGGAGTCACCTAGTGCAG	10200 fluorescence intensity (a.u.)
TTCCACGATTTGATTTTGAGTCTCTGTGAATTCAATCTTTCGGAGTCACCTAGTGCAG	8780 fluorescence intensity (a.u.)
GTTGCCGCTACACCTTCCACCTCAGCACCCTCGATGGCCTCGGAGTCACCTAGTGCAG	9080 fluorescence intensity (a.u.)
CCTTGCTGATATTGGGCTTGCGGGGAAGGAGGTTGATATTCGGAGTCACCTAGTGCAG	9120 fluorescence intensity (a.u.)
TCGCTGGTGGGGCTCGGCTGGGCGGGGCTGTGGTTCCTCACGGAGTCACCTAGTGCAG	16300 fluorescence intensity (a.u.)
GAGACCCAATAATCCATTGCATTGCTCTGCCAGGGTTCTACGGAGTCACCTAGTGCAG	8040 fluorescence intensity (a.u.)
TCCGTCGCGCCGCGCGCTTTCTTCTTCTTCTTCTTCTTCTCGGAGTCACCTAGTGCAG	8740 fluorescence intensity (a.u.)
CCCACACTTGGAACCTTGGATCATCTCATCTCACACACCCCGGAGTCACCTAGTGCAG	8640 fluorescence intensity (a.u.)
CTCGCCCCTGTCTCCGGCCAACCTCAATCGATCCCGCAACCGGAGTCACCTAGTGCAG	11200 fluorescence intensity (a.u.)

14 successive entries out of the list so far:
Sequence	binding signal
GAGTCGTGTTTGGTTGGTATGAAGATGTGTGATAAGGGCACGGAGTCACCTAGTGCAG	9610 fluorescence intensity (a.u.)
AACGAATTTGAACATGCCCCATCCTTACCTAAGTCTAGTTCGGAGTCACCTAGTGCAG	15500 fluorescence intensity (a.u.)
AAACTTAAACATTTCGCTTCATTTCTTTTTGCCCCATTATCGGAGTCACCTAGTGCAG	8640 fluorescence intensity (a.u.)
CCGTTGTTGGGCATCTACATCTTAATCGCCGGTCGTCTCGCGGAGTCACCTAGTGCAG	8320 fluorescence intensity (a.u.)
GCCTCGAGCTCCGTCAGACATGTTCAGTTTCATTATATTACGGAGTCACCTAGTGCAG	8120 fluorescence intensity (a.u.)
CGGTTGGTTGGCTGGTTGGTCGGCGAATTGCACATCTTGGCGGAGTCACCTAGTGCAG	8210 fluorescence intensity (a.u.)
GTCATATATCTGGTTTTGTGGTTGGAGGACGATTTTGTAACGGAGTCACCTAGTGCAG	9470 fluorescence intensity (a.u.)
ACTGCGCTGACGCCCGCGGCCGCCGCGGCGTCGCCTGCCGCGGAGTCACCTAGTGCAG	8080 fluorescence intensity (a.u.)
TTGTGTCATGTAGGTCCTTAAACTCTCAAAATGCATATCTCGGAGTCACCTAGTGCAG	8760 fluorescence intensity (a.u.)
AATTTTGAGATTTCTTTTCATCGTAGTTTTTTCCCATACTCGGAGTCACCTAGTGCAG	9260 fluorescence intensity (a.u.)
GGAACGTCTGAACACACAAGCTATCGTCATCTGAACGCACCGGAGTCACCTAGTGCAG	8240 fluorescence intensity (a.u.)
TTTTTTCCGGCATCCAACGTCGCACATCCATCCACGTCATCGGAGTCACCTAGTGCAG	11000 fluorescence intensity (a.u.)
GTCTCAGAATATATGATACGATCGTCCTGTCACTTGCCCACGGAGTCACCTAGTGCAG	9060 fluorescence intensity (a.u.)
CTCCGGACTCGCCGCGATCCACTTATTCCTCGCTCCCAATCGGAGTCACCTAGTGCAG	8650 fluorescence intensity (a.u.)

Remaining list, next part

Sequence	binding signal
TTTCTTTTCTTTTCATTTCCCTGTGTACTTGTTCTGATCTCGGAGTCACCTAGTGCAG	9290 fluorescence intensity (a.u.)
ACTCGGTCCAACCAAACCGGCCGCTAGTACCAATCGCTACCGGAGTCACCTAGTGCAG	8500 fluorescence intensity (a.u.)
TTGCCCATTCCATAGTTCAATCTTTTCATAACTATCACGCCGGAGTCACCTAGTGCAG	8680 fluorescence intensity (a.u.)
GTGGTTTGAACGAATGAGTGAAGGTATACTCGGGGTAATTCGGAGTCACCTAGTGCAG	8770 fluorescence intensity (a.u.)
CCGCTTTATCCTGCCCATTTAAATACCCATACTGTGCTTCCGGAGTCACCTAGTGCAG	8110 fluorescence intensity (a.u.)
AGTCATTTCCCGCGCGTCAGACCTGACGTCAGACGACGATCGGAGTCACCTAGTGCAG	8980 fluorescence intensity (a.u.)
GCCCGCAGTCTTTGTCGGGTTAGGATCCGTTTTGTGTTAACGGAGTCACCTAGTGCAG	8130 fluorescence intensity (a.u.)
TGTTACCAATGGAGCATATGATCATATTTCTTTCTTTATGCGGAGTCACCTAGTGCAG	8420 fluorescence intensity (a.u.)
ATGCGCGCGGGACAGTGTGTGTGATGGGGTGAGCCAATTGCGGAGTCACCTAGTGCAG	8310 fluorescence intensity (a.u.)
TCCCTCTCGATCGCTTCCCGTGCTCTCGCTCTCTCGCTTGCGGAGTCACCTAGTGCAG	10100 fluorescence intensity (a.u.)
TTCTTCTCTTTGATTAACTGTTTGGATTGTTATGTAGGTTCGGAGTCACCTAGTGCAG	9120 fluorescence intensity (a.u.)
ATGTGGAGGTCAAGGTTCGCGTTGGCCGATCTGGTTGAGGCGGAGTCACCTAGTGCAG	9830 fluorescence intensity (a.u.)
GTCGGGGTATGGTCTCGGGTGGTCTGCCTATAAATACCAGCGGAGTCACCTAGTGCAG	15200 fluorescence intensity (a.u.)
CCGTAATAAATTTATTTTTTGCTTCTTCAGTTTGTCCTAACGGAGTCACCTAGTGCAG	8500 fluorescence intensity (a.u.)
GGCCTCCTCGCATGGAACGCCGTCGTCTACTCGCTCCCATCGGAGTCACCTAGTGCAG	8630 fluorescence intensity (a.u.)
CTTAAGGTTCTCTTGGTTTGAGCTTAGATTTATTGTCTTACGGAGTCACCTAGTGCAG	9420 fluorescence intensity (a.u.)
GGAGGTGTGTGTGTGACAGTGTGTGAGTGTGTTGACAATACGGAGTCACCTAGTGCAG	10600 fluorescence intensity (a.u.)
CACCCCGTCCGTTCCTCTTTGCCGGCCGACTAGTCTCAACCGGAGTCACCTAGTGCAG	8160 fluorescence intensity (a.u.)
TTGGAAAGCCGGTGGGGTGCGGGTGGCTCGTGGCGATCAGCGGAGTCACCTAGTGCAG	8700 fluorescence intensity (a.u.)
GGTTTTTTCATCGAAGTTTATTTTTCAGCCTTTGCTTTTACGGAGTCACCTAGTGCAG	10800 fluorescence intensity (a.u.)
GTCATTTTTTACCGCGGCTCCTCAGCTCGACCGACATGTGCGGAGTCACCTAGTGCAG	12700 fluorescence intensity (a.u.)

Sequence	binding signal
CGTTCAAAACTTTGTTATAAGGGGCCATACAGGGGAAAAACGGAGTCACCTAGTGCAG	10200 fluorescence intensity (a.u.)
CTATCCATTATGCACCCATCCATCCATCTATCCTCACCCACGGAGTCACCTAGTGCAG	8350 fluorescence intensity (a.u.)
GAACCGAACCCTGCAGTATACACACTTGTTCCATTAATTACGGAGTCACCTAGTGCAG	11500 fluorescence intensity (a.u.)
TTTTCTCTGAGTTTATAAACCTTGCAGGAAAACGATCCACCGGAGTCACCTAGTGCAG	8370 fluorescence intensity (a.u.)
GGTAGACACATATACACTTTTATACTCGTGTTATACATATCGGAGTCACCTAGTGCAG	8460 fluorescence intensity (a.u.)
ATTCACCGTCTGAATTTATTGTTTCTGTTTTGCTAGATCTCGGAGTCACCTAGTGCAG	8920 fluorescence intensity (a.u.)
GATTGAGGCGGGGAGCGTTAGATGGGTAACTTTGCAAATGCGGAGTCACCTAGTGCAG	9330 fluorescence intensity (a.u.)
GAGCCACACCAACAACAACAATCCAAACCCACGCACACACCGGAGTCACCTAGTGCAG	8080 fluorescence intensity (a.u.)
GACGTATTGTTCTATGCACGATGAGCTGACTTTGCTTTGACGGAGTCACCTAGTGCAG	9210 fluorescence intensity (a.u.)
AGGACTATAGCTTCGGCTTCACTTCTCCTATAGCTTAAATCGGAGTCACCTAGTGCAG	8560 fluorescence intensity (a.u.)
TAAACACGCTCACCTCCCACTTATACCCTTCTGGTTGTTTCGGAGTCACCTAGTGCAG	9330 fluorescence intensity (a.u.)
GTTGTTGACCGTGCGTCGCTGGTTCAACGTTGATGGAGTTCGGAGTCACCTAGTGCAG	11100 fluorescence intensity (a.u.)
ACTTATTGAGATATTTATCTCACGCGCCCGGCACGTGCTCCGGAGTCACCTAGTGCAG	9860 fluorescence intensity (a.u.)
GCCATTAATCACCCACAGCTTCTCGTTGGAGAAATTTCCCCGGAGTCACCTAGTGCAG	8160 fluorescence intensity (a.u.)
AGAATCCTGTCTTTTTTATATTCCTACATTTCTTTCAACCCGGAGTCACCTAGTGCAG	9180 fluorescence intensity (a.u.)
GTAATTCTGTTGTCATACGGTTTATTGTGTGGTTGCTGAACGGAGTCACCTAGTGCAG	9010 fluorescence intensity (a.u.)
CAACTGTTAGAAGAGAGGGAAGGGTGGGCCATATTAAGTGCGGAGTCACCTAGTGCAG	8450 fluorescence intensity (a.u.)
TTTGGGGTTCAGCGGGCATTTGTTTTGATTGTTTCTTATTCGGAGTCACCTAGTGCAG	23400 fluorescence intensity (a.u.)
ATCCATCCATCTATTCGCTTCCCTTTCCTTGCACCTCTGCCGGAGTCACCTAGTGCAG	9050 fluorescence intensity (a.u.)
TTTTTCTATTCCTTAAATTATATATTTAATTCCGAATTTCCGGAGTCACCTAGTGCAG	9180 fluorescence intensity (a.u.)
ACCACATGCTCATCTTATTGTTTGTTTCGTTTCACCTCTACGGAGTCACCTAGTGCAG	10700 fluorescence intensity (a.u.)
